Measurements reported in paper PMC8390506.
No constants are given. Whether binding was seen depends on the method and setting.

Biological target: T1, Targeting Protein for XKlp2 (TPX2), full length, wild type (Xenopus laevis), Q6NUF4
T1 chain: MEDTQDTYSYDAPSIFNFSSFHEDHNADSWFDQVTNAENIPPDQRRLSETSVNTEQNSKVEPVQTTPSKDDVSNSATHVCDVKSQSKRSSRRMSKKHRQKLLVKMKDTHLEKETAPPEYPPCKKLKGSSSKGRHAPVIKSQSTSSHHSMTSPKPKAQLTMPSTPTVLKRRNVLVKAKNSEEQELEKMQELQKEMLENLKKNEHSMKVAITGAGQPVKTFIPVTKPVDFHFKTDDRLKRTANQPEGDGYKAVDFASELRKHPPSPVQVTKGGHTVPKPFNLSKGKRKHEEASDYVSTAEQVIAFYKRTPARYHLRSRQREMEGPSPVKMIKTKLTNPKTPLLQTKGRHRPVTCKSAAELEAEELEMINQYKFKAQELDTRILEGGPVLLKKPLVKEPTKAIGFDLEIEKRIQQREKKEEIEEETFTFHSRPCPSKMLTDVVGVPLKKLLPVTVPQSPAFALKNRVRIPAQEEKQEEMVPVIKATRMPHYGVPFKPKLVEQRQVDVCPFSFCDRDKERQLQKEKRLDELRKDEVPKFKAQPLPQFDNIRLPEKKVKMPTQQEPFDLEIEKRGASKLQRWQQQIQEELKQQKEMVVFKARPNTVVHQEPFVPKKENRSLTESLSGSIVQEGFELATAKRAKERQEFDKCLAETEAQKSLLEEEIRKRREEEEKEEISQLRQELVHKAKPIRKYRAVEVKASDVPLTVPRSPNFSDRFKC
Test: SEC-MALS; Superdex-200-increase 3.2/300 in line with a Wyatt light scattering machine; GFP-TPX2 alone, importin-α/β alone and TPX2 with importin-α/β (TPX2 printed as 5 M, importin-α/β 15 μM); both purified
Conditions: remark: other sources report otherwise

binding: no binding
B1: Targeting Protein for XKlp2 (TPX2), full length, wild type, Q6NUF4 1-716 (protein)
chain: MEDTQDTYSYDAPSIFNFSSFHEDHNADSWFDQVTNAENIPPDQRRLSETSVNTEQNSKVEPVQTTPSKDDVSNSATHVCDVKSQSKRSSRRMSKKHRQKLLVKMKDTHLEKETAPPEYPPCKKLKGSSSKGRHAPVIKSQSTSSHHSMTSPKPKAQLTMPSTPTVLKRRNVLVKAKNSEEQELEKMQELQKEMLENLKKNEHSMKVAITGAGQPVKTFIPVTKPVDFHFKTDDRLKRTANQPEGDGYKAVDFASELRKHPPSPVQVTKGGHTVPKPFNLSKGKRKHEEASDYVSTAEQVIAFYKRTPARYHLRSRQREMEGPSPVKMIKTKLTNPKTPLLQTKGRHRPVTCKSAAELEAEELEMINQYKFKAQELDTRILEGGPVLLKKPLVKEPTKAIGFDLEIEKRIQQREKKEEIEEETFTFHSRPCPSKMLTDVVGVPLKKLLPVTVPQSPAFALKNRVRIPAQEEKQEEMVPVIKATRMPHYGVPFKPKLVEQRQVDVCPFSFCDRDKERQLQKEKRLDELRKDEVPKFKAQPLPQFDNIRLPEKKVKMPTQQEPFDLEIEKRGASKLQRWQQQIQEELKQQKEMVVFKARPNTVVHQEPFVPKKENRSLTESLSGSIVQEGFELATAKRAKERQEFDKCLAETEAQKSLLEEEIRKRREEEEKEEISQLRQELVHKAKPIRKYRAVEVKASDVPLTVPRSPNFSDRFKC
